We go through 90 compounds from PubChem BioAssay AID485318 (Broad Institute, 2010).

The chains behind the UniProt entries cited, without tags or fusion partners. Where a name states a change or a piece, a line headed by the entry shows the natural chain unless it says otherwise.
UniProt O15379: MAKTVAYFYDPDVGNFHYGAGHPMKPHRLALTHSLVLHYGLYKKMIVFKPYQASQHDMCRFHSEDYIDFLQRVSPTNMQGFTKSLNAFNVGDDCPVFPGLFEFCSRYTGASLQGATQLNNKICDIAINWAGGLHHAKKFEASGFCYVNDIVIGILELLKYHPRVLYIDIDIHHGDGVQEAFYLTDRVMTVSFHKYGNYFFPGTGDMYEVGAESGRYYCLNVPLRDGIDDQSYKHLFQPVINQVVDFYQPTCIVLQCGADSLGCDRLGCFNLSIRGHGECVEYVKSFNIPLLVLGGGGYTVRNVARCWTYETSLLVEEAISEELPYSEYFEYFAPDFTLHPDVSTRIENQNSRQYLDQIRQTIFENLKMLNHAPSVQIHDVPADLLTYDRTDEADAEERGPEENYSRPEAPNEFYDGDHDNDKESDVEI

The campaign covered roughly 1,400 compounds. Fewer than 10 were called active.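 The calls were made as follows: active = fluorescence-lowering compounds whose fitted half-maximal concentration is at or below ten times the highest valid dose tested; inconclusive = flat curve at 30 to 70% inhibition, or poor fit; inactive = the rest.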 The list shows a part of the results.

The target of this assay is Histone deacetylase 3 (Homo sapiens) (UniProt O15379). The assay is described as follows: inhibition of human HDAC3 enzymatic activity – biochemical, fluorescence, cherry-picked samples, counter-screen for JMJD2C/GASC1 demethylase inhibitor project, dose response (AID 485318).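 Also: enzyme preincubated with compound before substrate and trypsin were added; 0% = neutral control wells and -100% = SAHA positive control wells.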 To be noted: recombinant HDAC3, fluorogenic peptide/trypsin coupled; at 12 µM (top of the series).
In the case of `COc1ccc(N/C=C2/CCCCC2=O)cc1`, the activity change, negative = inhibition is inactive: -0.432%.
To `Cn1c(=O)c(-c2ccccc2)nn2c3ccccc3nc12` belongs inactive: -0.459%.
Next, `O=C(Cn1nc(-c2ccc(Cl)cc2)ccc1=O)NCC1COCCO1` (stereo not given): inactive: -0.234%; `Cn1c(=N)n(CC(O)c2ccccc2)c2ccccc21` (stereo not given): inactive: 0.562%.
Turning to `CN(C)c1ccc(N=Cc2nc(-c3ccccc3)oc2OC(=O)c2ccccc2)cc1`, the activity change, negative = inhibition is inactive: -0.11%.
Next, `O=C1NCCC/C1=N/Nc1ccc(F)cc1`: inactive: 0.198%; `Cc1ccc(-c2csc3nc4cc(C(=O)NC5CCC(O)CC5)ccc4c(=O)n23)cc1` (stereo not given): inactive: -0.117%.
Next, `COc1ccc(CCNC(=O)CSCc2n[nH]c(=O)[nH]2)cc1OC`: inactive: 0.182%.
As to `Cc1ccc(Nc2nnc(SCC(=O)N(C)C3CCS(=O)(=O)C3)s2)cc1` (stereo not given), the activity change, negative = inhibition is inactive: 0.304%.
Next, `CC(C)C[C@@H]1CN=C(N)N1C[C@@H]1CCCN1C[C@H](C)N1C[C@@H](Cc2ccccc2)N(CCc2ccc(Cl)c(Cl)c2)C1=N`: inactive: 0.112%; `COc1ccc(NC(=O)N(C)C[C@H]2Oc3c(NC(=O)C4CC4)cccc3C(=O)N([C@H](C)CO)C[C@@H]2C)cc1`: inactive: 0.036%; `Cc1noc(C)c1S(=O)(=O)N(C)C[C@H]1Oc2c(NC(=O)Nc3ccccc3)cccc2C(=O)N([C@H](C)CO)C[C@@H]1C`: inactive: 0.586%.
To `CC1CCN(C(=S)NC(=O)c2cccc([N+](=O)[O-])c2)CC1` belongs inactive: 0.254%; to `Cc1ccc(C(c2sc3nc(C)nn3c2O)N2CCN(c3ccccc3F)CC2)cc1` (stereo not given), inactive: 0.0931%; to `N/C(=N\S(=O)(=O)c1cc(C(F)(F)F)cc(C(F)(F)F)c1)c1ccccc1`, inactive: 0.0583%.
On to `O=C(CSc1nnc(CNC(=O)c2c(F)cccc2Cl)o1)Nc1ccc2c(c1)OCCO2`, for which the activity change, negative = inhibition was inactive: 0.361%.
For the compound `CCn1c(CNC(=O)Cc2ccc(OC)cc2)nnc1SCC(=O)NC1CCCCC1`, the activity change, negative = inhibition was inactive: -0.567%.
As for `O=C1c2ccccc2C(=O)C12OC2c1cccc2ccccc12` (stereo not given), the activity change, negative = inhibition is inactive: -0.185%.
Take `CCN(CC)C(=O)C1c2ccccc2Oc2ccccc21`: the activity change, negative = inhibition was inactive: -0.357%.
With `Cc1ccc(Cl)cc1N1CCN(C(=O)c2ccc(NS(=O)(=O)c3c(C)noc3C)cc2)CC1`, the activity change, negative = inhibition was inactive: 0.244%.
As to `Cc1cc2ccccn2c1C(=O)c1ccncc1`, the activity change, negative = inhibition is inactive: 0.618%.
On to `CC(C)(C)c1ccc(C(=O)OCc2c(-c3ccccc3)ncc3ccccc23)cc1`, for which the activity change, negative = inhibition is inactive: 0.791%.
Turning to `O=c1ccc2cc3c([nH]c4ccc(Br)cc43)oc-2c1O`, the activity change, negative = inhibition is inactive: 0.247%.
Next, `CCOc1ccc(C(=S)NC2CCCCC2)cc1`: inactive: 0.673%.
In the case of `O=C(NNC(=O)C1CCN(S(=O)(=O)c2ccccc2)CC1)c1ccccc1O`, the activity change, negative = inhibition was inactive: 0.489%.
Next, `Cc1cccc(NC(=S)N2CCN(Cc3ccc4c(c3)OCO4)CC2)c1C`: inactive: 0.411%.
For `COc1ccc(/C(O)=C/Sc2nnc(Cc3ccccc3)o2)cc1`, the activity change, negative = inhibition was inactive: 0.165%.
Next, `COc1ccc(CCNC(=O)c2ccccc2Cl)cc1OC`: inactive: 0.428%; `O=C(C1CCC1)N(CCc1ccccc1)Cc1nc2ccccc2c(=O)[nH]1`: inactive: 0.195%; `O=C(NCc1cccc(Cl)c1)c1ccc2c(c1)OCO2`: inactive: -0.78%.
Next, `Cc1ccc(C2=[N+]([O-])C(C)(C)CC2)cc1`: inactive: 0.77%.
Take `NC(=O)C1CCN(C(=O)CCSc2ccccc2)CC1`: the activity change, negative = inhibition was inactive: 0.0558%.
To `COc1ccc(NC(=S)NNC(=O)c2ccc(S(=O)(=O)N3CCOCC3)cc2)cc1` belongs inactive: 0.24%; to `O=S(=O)(Nc1ccccc1F)c1cccc(NC(=S)NCCN2CCOCC2)c1`, inactive: 0.812%.
Next, `COc1ccc2cc3cc(C(=O)N4CCN(C5CCCCC5)CC4)oc3nc2c1`: inactive: -0.248%; `CC(=O)C[C@@H](O)CC(=O)[C@H]1OC(=O)CCCCCc2ccccc21`: inactive: 0.73%; `O=C(NC1CC2CCC1C2)C1COc2ccccc2O1` (stereo not given): inactive: 0.269%.
Next, `CC(C)(O)[C@H](O)Cc1cc2ccc(=O)oc2cc1O[C@@H]1O[C@H](CO)[C@@H](O)[C@H](O)[C@H]1O`: inactive: 0.034%.
Consider `COc1ccc(/C=C/C(=O)OCC(=O)c2ccc[nH]2)cc1`, for which the activity change, negative = inhibition was inactive: -0.313%.
Next, `CCOc1ccc2nc(NC(=O)CS(=O)(=O)c3ccc(C)cc3)sc2c1`: inactive: -0.149%.
Next, `COc1cc(Cl)c(NC2=CC(=O)C(=O)c3ccccc32)c(OC)c1`: inactive: -0.49%; `CCOc1ccccc1Nc1ncnc2ccccc12`: inactive: 1.01%.
Next, `CCOC(=O)c1sc(Nc2nc(OC)cc(OC)n2)nc1C`: inactive: -0.509%.
Turning to `O=C(Cn1c(NCCCO)nc2ccccc21)c1ccc(Br)cc1`, the activity change, negative = inhibition is inactive: 0.155%.
Regarding `O=C(NCc1nnc(SCC(=O)N2CCCC2)o1)c1c(F)cccc1Cl`, the activity change, negative = inhibition was inactive: 0.709%.
To `CCN(C[C@H]1N[C@@](C)(C(=O)OC)[C@H]2C(=O)N(C)C(=O)[C@@H]12)C(=O)Nc1ccccc1` belongs inactive: -0.115%; to `Nc1c(C(=O)OCC2CCCO2)c2nc3ccccc3nc2n1C1CCCC1` (stereo not given), inactive: 0.779%.
With `COC(=O)CCC(=O)N1CCOCCOCCN(C(=O)CCC(=O)OC)CCOCCOCC1`, the activity change, negative = inhibition is inactive: 0.687%.
For the compound `O=C(Nc1nc2ccccc2n1CCN1CCCC1)C1CCCCC1`, the activity change, negative = inhibition was inactive: -0.0621%.
On to `CCOC(=O)c1cc2n(n1)C(C(F)(F)F)CC(C)N2` (stereo not given), for which the activity change, negative = inhibition was inactive: 0.00685%.
Turning to `COc1ccccc1CCNC(=O)c1ccc(C)o1`, the activity change, negative = inhibition is inactive: -0.4%.
With `Cc1ccc(CNC(=O)[C@@H](NC(=O)Cc2ccccc2)C(C)C)cc1`, the activity change, negative = inhibition is inactive: 0.874%.
To `Cn1nc(N)nc1N1CCN(c2ccc(F)cc2)CC1` belongs inactive: 0.182%; to `Cc1noc(C)c1NC(=O)N(C)C[C@H]1Oc2ccc(NS(=O)(=O)c3ccccc3)cc2C(=O)N([C@H](C)CO)C[C@@H]1C`, inactive: 0.22%; to `CCc1ncc(C)[nH]1`, inactive: 0.761%.
Turning to `COC(=O)c1ccc(-c2sc3nc(N4CCOCC4)c4c(c3c2N)CC(C)(C)OC4)o1`, the activity change, negative = inhibition is inactive: -0.609%.
Next, `Cc1ccc(NC(=O)CSc2ncc(S(=O)(=O)c3ccccc3)c(=O)[nH]2)cc1C`: inactive: -0.644%; `COc1ccc(Br)cc1CN(C)CC(=O)NCc1ccc(F)cc1`: inactive: 0.309%.
As for `COc1ccc(C(CNC(=O)c2oc3cc(Br)ccc3c2C)N2CCCCC2)cc1` (stereo not given), the activity change, negative = inhibition was inactive: 0.153%.
Next, `O=C(CSc1ncccn1)Nc1ccc(S(=O)(=O)N2CCCCC2)cc1`: inactive: -0.114%; `CC(=O)Nc1cc2c(cc1NC(=O)Cn1nc(-c3ccccc3)ccc1=O)OCCO2`: inactive: -0.351%; `CCCCN(C)C(=O)CCC(=O)NNc1nc2ccccc2c2nc(C)nn12`: inactive: -0.0011%.
Next, `N/C(=N\NC(=O)c1ccc(Cl)cc1)c1cnccn1`: inactive: 0.535%; `CCc1ccc(S(=O)(=O)Nc2nnc(N)s2)cc1`: inactive: 1%; `Cn1c(=O)[nH]c(=O)c2c1nc(NCCCO)n2Cc1ccc(F)cc1`: inactive: -0.00734%.
Next, `CC(C)(C)n1nc2c(c1NC(=O)c1ccc(Br)o1)CS(=O)C2` (stereo not given): inactive: 0.895%.
As to `CS(=O)(=O)c1ccccc1-c1csc(N2CCC(C(N)=O)CC2)n1`, the activity change, negative = inhibition is inactive: -0.0635%.
Consider `CC(C)N(Cc1ccccc1)C(=O)COC(=O)c1ccc2c(c1)OCCO2`, for which the activity change, negative = inhibition was inactive: -0.449%.
Regarding `CCc1ccc2oc(=O)cc(CN3CCOCC3)c2c1`, the activity change, negative = inhibition was inactive: 1.21%.
To `COc1ccc(NC(=S)N2CCC(C(=O)N3CCCCCC3)CC2)cc1` belongs inactive: 0.339%.
To `COc1cccc(/C=C/C(=O)OCC(=O)Nc2cccc(S(=O)(=O)N(C)C)c2)c1` belongs inactive: -0.586%; to `COc1ccc(S(=O)(=O)Nc2ccc3c(c2)C(=O)N([C@H](C)CO)C[C@H](C)[C@H](CN(C)Cc2ccc(C(=O)O)cc2)O3)cc1`, inactive: 0.353%.
Next, `CCOCCCNC(=O)c1c[nH]c2ccc(C)cc2c1=O`: inactive: -0.244%; `C=CCc1c(C)nc(SC(C)C)[nH]c1=O`: inactive: 0.0726%; `O=C(N/N=C/c1ccc([N+](=O)[O-])o1)c1cn(-c2ccccc2)nc1-c1ccc(F)cc1`: inactive: -0.311%.
As to `O=C(c1ccsc1)N1CCN(C(=O)c2cccs2)CC1`, the activity change, negative = inhibition is inactive: 0.464%.
To `COc1ccc(NC(=O)NCCCCc2ccccc2)c(OC)c1` belongs inactive: -0.195%; to `CCCC(=O)Nc1ccc(C(=O)NCC2CCCO2)cc1` (stereo not given), inactive: -0.0895%; to `Cc1ccc(S(=O)(=O)N2CCOC2CNC(=O)C(=O)NCCc2ccc(S(N)(=O)=O)cc2)cc1` (stereo not given), inactive: -0.0611%.
To `CCOC(=O)C1=C(c2ccccc2)NC(=O)NC1c1ccc(O)c(OCC)c1` (stereo not given) belongs inactive: 0.587%.
For the compound `CCC(C)(C)n1nnnc1CN1CCc2ccccc21`, the activity change, negative = inhibition is inactive: 0.458%.
Next, `Oc1ccccc1N1CCN(C(=S)NCc2ccccc2)CC1`: inactive: 1.17%; `Cc1ccc(NC(=O)/C=C/c2cccs2)c([N+](=O)[O-])c1`: inactive: -0.116%; `CC(Sc1nc2c(cc1C#N)CCCCC2)C(=O)O` (stereo not given): inactive: 1.13%.
Turning to `O=C1CCCC2=C1C(c1ccc(OS(=O)(=O)c3ccc(Cl)cc3)cc1)C1=C(CCCC1=O)O2`, the activity change, negative = inhibition was inactive: 0.631%.
As for `O=[N+]([O-])c1ccc(O)c(-c2nn[nH]n2)c1`, the activity change, negative = inhibition was inactive: 0.227%.
As for `CSc1ccc(-c2nc(CSCC(=O)N3CCOCC3)c(C)o2)cc1`, the activity change, negative = inhibition is inactive: 0.0526%.
Take `N/C(=N\OC(=O)COc1cc(Cl)c(Cl)cc1Cl)c1ccncc1`: the activity change, negative = inhibition is inactive: 0.342%.
Next, `Cc1ccc(/C(N)=N/OC(=O)N2c3ccccc3Sc3ccccc32)cc1`: inactive: -0.429%; `CCOC(=O)C1CCN(C(=O)CN(c2ccc(OC)c(OC)c2)S(=O)(=O)c2ccccc2)CC1`: inactive: -0.51%.
